From the supplement of paper PMC11150407
Hit rate of the full screen: of about 2,100 compounds, about 180 (8.6%) showed an effect of 50% or more. Some of the results follow.

Each compound was assayed on MOLM1 and UCSD/AML1 (averaged) (assay: cell viability relative to DMSO control (POC); higher = less growth inhibition). Conditions: 1 µM; 72 h.
Method: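 Primary viability screen in the 3q26 EVI1-high AML cell lines MOLM1 and UCSD/AML1 (1.5e3 cells/well, 384-well), compounds at 1 uM for 72 h. ATP CellTiter-Glo read-out given as percent of viable cells over DMSO control (POC), averaged over duplicates. DMSO was the negative control and 5 uM etoposide the positive control. This mapping covers the MicroSource Spectrum and Selleck anticancer libraries (drug names).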

Compound | cell viability [%]
CNCCCN1c2ccccc2CCc2ccccc21 | 100
O=C(O)[C@]1(O)C[C@@H](O)[C@@H](O)[C@H](O)C1 | 97.5
CCC(C)n1ncn(-c2ccc(N3CCN(c4ccc(OCC5COC(Cn6cncn6)(c6ccc(Cl)cc6Cl)O5)cc4)CC3)cc2)c1=O (centres undefined) [Itraconazole (Sporanox)] | 87.1
CCC(C)n1ncn(-c2ccc(N3CCN(c4ccc(OCC5COC(Cn6cncn6)(c6ccc(Cl)cc6Cl)O5)cc4)CC3)cc2)c1=O (centres undefined) | 84.1
Cc1cccc(Nc2ccccc2C(=O)O)c1C | 104
CC(N)C(=O)OC(C)(C)Cc1ccc(Cl)cc1 (centres undefined) | 99
C=CCSCC=C | 97.3
NNC(=O)c1ccncc1 | 121
CCC(=O)OCC(=O)[C@@]1(OC(=O)CC)[C@@H](C)C[C@H]2[C@@H]3CCC4=CC(=O)C=C[C@]4(C)[C@@]3(F)[C@@H](O)C[C@@]21C | 66
CC1(C)O[C@@H]2C[C@H]3[C@@H]4C[C@H](F)C5=CC(=O)CC[C@]5(C)[C@H]4[C@@H](O)C[C@]3(C)[C@]2(C(=O)CO)O1 | 70.7
C[C@H]1C[C@H]2[C@@H]3CCC4=CC(=O)C=C[C@]4(C)[C@H]3C(=O)C[C@]2(C)[C@@]1(O)C(=O)CO [Betapar (Meprednisone)] | 59
CCCCc1oc2ccccc2c1C(=O)c1cc(I)c(OCCN(CC)CC)c(I)c1 | 102
O=C(O)c1cccnc1 | 95
Cc1cccc(N(C)C(=S)Oc2ccc3ccccc3c2)c1 | 100
C=CCNC1=C2C[C@@H](C)C[C@H](OC)[C@H](O)[C@@H](C)/C=C(\C)[C@H](OC(N)=O)[C@@H](OC)/C=C\C=C(/C)C(=O)NC(=CC1=O)C2=O [17-AAG (Tanespimycin)] | 29.1
CN1CCN(c2ccc3nc(-c4c(N)c5c(F)cccc5[nH]c4=O)[nH]c3c2)CC1 [Dovitinib (TKI-258)] | 26.7
CCN1CCCC1CNC(=O)c1cc(S(N)(=O)=O)ccc1OC (centres undefined) | 90.8
O=C(O)c1cc2cc(F)ccc2[nH]1 | 119
CC(C)=CCc1c(O)cc2oc(C)cc(=O)c2c1O | 94.1
CC12CC3CC(C)(C1)CC(N)(C3)C2 | 100
COc1ccc(-c2cc(=O)c3c(OC)c(OC)c(OC)c(OC)c3o2)cc1 | 89.9
Cc1cccc(-c2nn3c(c2-c2ccnc4ccc(C(N)=O)cc24)CCC3)n1 | 96.2

Compound | cell viability [%]
Nc1ccc(S(=O)(=O)O)cc1.Nc1ccc(S(=O)(=O)O)cc1.[Zn] | 99.2
C#C[C@]1(O)CC[C@H]2[C@@H]3CCC4=Cc5oncc5C[C@]4(C)[C@H]3CC[C@@]21C | 98.2
CCOc1ccc(Cc2nccc3cc(OCC)c(OCC)cc23)cc1OCC | 89.2
O=C(Nc1ccc([N+](=O)[O-])cc1Cl)c1cc(Cl)ccc1O | 103
O=C(Nc1cccnc1)N1CCC(Cc2cccc(Oc3ccc(C(F)(F)F)cn3)c2)CC1 | 56.7
CSCCC(N)C(=O)NC(CC(C)C)C(=O)NC(Cc1ccccc1)C(=O)O (centres undefined) | 97.7
CN1CCCN=C1/C=C/c1cccs1 | 102
CO[C@H]1C[C@@H]2CC[C@@H](C)[C@@](O)(O2)C(=O)C(=O)N2CCCC[C@H]2C(=O)O[C@H]([C@H](C)C[C@@H]2CC[C@@H](OC(=O)C(C)(CO)CO)[C@H](OC)C2)CC(=O)[C@H](C)/C=C(\C)[C@@H](O)[C@@H](OC)C(=O)[C@H](C)C[C@H](C)/C=C/C=C/C=C/1C | 11
CCC[C@@H]1C[C@@H](C(=O)N[C@@H]([C@H]2O[C@H](SC)[C@H](O)[C@@H](O)[C@H]2O)[C@@H](C)O)N(C)C1 | 104
C=C1C(N)CC2CC1C2(C)C (stereo not drawn) [3-AMINO-beta-PINENE] | 96.3
C=CC1=C(C)/C(=C/c2[nH]c(Cc3[nH]c(/C=C4\NC(=O)C(C)=C4C=C)c(C)c3CCC(=O)O)c(CCC(=O)O)c2C)NC1=O | 91.9
Cc1ccc(C(=O)N(CCCN)[C@@H](c2oc3cc(Cl)ccc3c(=O)c2Cc2ccccc2)C(C)C)cc1 | 13.4
CC(C)(C)NC(=O)[C@H]1CC[C@H]2[C@@H]3CC[C@H]4NC(=O)C=C[C@]4(C)[C@H]3CC[C@]12C | 98.2
C=C1CC[C@H](O)C/C1=C/C=C1\CCC[C@]2(C)[C@@H]([C@H](C)/C=C/[C@H](C)C(C)C)CC[C@@H]12 | 101
CC(C)=CCCC1(C)C=Cc2c(O)c3c(c(CC=C(C)C)c2O1)OC12C(=CCCC1C(C)(C)O[C@@]2(C/C=C(\C)C(=O)O)C(=O)O)C3=O (some centres undefined) | 103
Nc1nc(N)c2nc(-c3ccccc3)c(N)nc2n1 | 99.5
C=C1C(=O)O[C@H]2[C@H]1CC/C(C)=C/CC[C@@]1(C)O[C@@H]21 | 88.5
COc1cccc(O)c1O | 110
CCCCOc1ccc(C(=O)CCN2CCCCC2)cc1 | 104
CC(C)(C)CC(C)(C)c1ccc(OCCOCC[N+](C)(C)Cc2ccccc2)cc1 | 97.1
COc1ccc(CCC(=O)c2c(O)cc(O[C@@H]3O[C@H](CO)[C@@H](O)[C@H](O)[C@H]3O[C@@H]3O[C@@H](C)[C@H](O)[C@@H](O)[C@H]3O)cc2O)cc1O | 97.1
C[C@]12CC[C@H](O)CC1=CC[C@@H]1[C@@H]2CC[C@]2(C)C(c3cccnc3)=CC[C@@H]12 [Abiraterone (CB-7598)] | 102

No new results follow: entries from further up.
Compound | cell viability [%]
O=C(Nc1cccnc1)N1CCC(Cc2cccc(Oc3ccc(C(F)(F)F)cn3)c2)CC1 | 56.7
CSCCC(N)C(=O)NC(CC(C)C)C(=O)NC(Cc1ccccc1)C(=O)O (centres undefined) | 97.7
